Laboratory results as given in PMC9277853.

T1: Flag-HA-RNF8 (UniProt O76064)
T1 sequence: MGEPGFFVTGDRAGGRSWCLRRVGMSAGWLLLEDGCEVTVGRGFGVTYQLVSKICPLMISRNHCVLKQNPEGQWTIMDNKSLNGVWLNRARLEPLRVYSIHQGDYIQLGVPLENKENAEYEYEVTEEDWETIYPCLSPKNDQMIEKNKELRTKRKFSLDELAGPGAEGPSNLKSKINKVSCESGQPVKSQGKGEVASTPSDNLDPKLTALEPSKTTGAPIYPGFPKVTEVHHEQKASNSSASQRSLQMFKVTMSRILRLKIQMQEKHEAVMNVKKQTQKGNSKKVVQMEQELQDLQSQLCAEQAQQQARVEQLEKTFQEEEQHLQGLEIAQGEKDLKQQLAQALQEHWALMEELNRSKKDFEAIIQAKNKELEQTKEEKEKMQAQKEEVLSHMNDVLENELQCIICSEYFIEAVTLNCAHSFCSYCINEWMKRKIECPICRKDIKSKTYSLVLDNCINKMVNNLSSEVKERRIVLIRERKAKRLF


Biological target: T1, Flag-HA-RNF8
Assay: affinity purification with mass spectrometry; two-way screen: cells transfected with Flag-HA-RNF8, IP on anti-Flag-M2 beads, eluate IP on anti-HA beads; in parallel IP with an anti-RNF8 antibody; SDS-PAGE, silver staining, bands to LC-MS; the two protein sets intersected (218 proteins)

binding	Binder
binds	MDH2 (protein, UniProt P40926 25-338) AKVAVLGASGGIGQPLSLLLKNSPLVSRLTLYDIAHTPGVAADLSHIETKAAVKGYLGPEQLPDCLKGCDVVVIPAGVPRKPGMTRDDLFNTNATIVATLTAACAQHCPEAMICVIANPVNSTIPITAEVFKKHGVYNPNKIFGVTTLDIVRANTFVAELKGLDPARVNVPVIGGHAGKTIIPLISQCTPKVDFPQDQLTALTGRIQEAGTEVVKAKAGAGSATLSMAYAGARFVFSLVDAMNGKEGVVECSFVKSQETECTYFSTPLLLGKKGIEKNLGIGKVSSFEEKMISDAIPELKASIKKGEDFVKTLK
binds	TERF2IP (protein, UniProt Q9NYB0 1-399) MAEAMDLGKDPNGPTHSSTLFVRDDGSSMSFYVRPSPAKRRLSTLILHGGGTVCRVQEPGAVLLAQPGEALAEASGDFISTQYILDCVERNERLELEAYRLGPASAADTGSEAKPGALAEGAAEPEPQRHAGRIAFTDADDVAILTYVKENARSPSSVTGNALWKAMEKSSLTQHSWQSLKDRYLKHLRGQEHKYLLGDAPVSPSSQKLKRKAEEDPEAADSGEPQNKRTPDLPEEEYVKEEIQENEEAVKKMLVEATREFEEVVVDESPPDFEIHITMCDDDPPTPEEDSETQPDEEEEEEEEKVSQPEVGAAIKIIRQLMEKFNLDLSTVTQAFLKNSGELEATSAFLASGQRADGYPIWSRQDDIDLQKDDEDTREALVKKFGAQNVARRIEFRKK

Results are given in words; binding and its absence hold for the method and conditions named. In cells and extracts the contact can be indirect. A yes stands for co-enrichment or nearness to the bait. Other partners may have been found. Sequences can lack the tags named with a protein.
